{"source": "patent US12187770B2", "about": "“Cyclic peptide from novel bone morphogenetic protein 2, preparation method therefor and application thereof” (Hangzhou Huibo Science and Technology Co., Ltd, priority 2019, dated 2025)", "key": {"BMSC": {"system": "BMSC", "test": "BMSC extracellular matrix mineralization", "type": "cell-based"}, "[1]": {"system": "mouse mesenchymal stem cells (BMSC)", "test": "Osteogenic differentiation of mouse mesenchymal stem cells (BMSC), ALP staining", "type": "cell-based"}, "rat skull defect": {"system": "rat skull defect", "test": "Collagen sponge loaded with peptide, repair of rat skull bone defect, MicroCT", "type": "in vivo", "details": "4 weeks"}, "[2]": {"system": "mesenchymal stem cells-endothelial cells", "test": "Cell experiment in vitro on mesenchymal stem cells (adhesion, migration, vascularization)", "type": "cell-based"}, "[3]": {"system": "8 mm rat skull bone defect", "test": "Repair of cranial defects in rats, peptide dripped on medical collagen membrane, Micro-CT", "type": "in vivo"}, "[4]": {"system": "human osteoblast cell line (hFOB1.19)", "test": "hFOB1.19 ALP activity detection and staining", "type": "cell-based"}, "HUVEC": {"system": "HUVEC", "test": "HUVEC tube formation test", "type": "cell-based, human", "details": "equivalent concentration"}, "[5]": {"system": "human osteoblast cell line (hFOB1.19)", "test": "hFOB1.19 extracellular matrix mineralization, Alizarin Red staining", "type": "cell-based"}}, "note": "Part of at least one peptide drawing is inferred or uncertain, most often the ends. Bridge positions count the residues as written; N and C are the ends. Peptide text beside a SMILES is read from it.", "data": [{"smiles": "CC[C@H](C)[C@@H]1NC(=O)[C@H](C)NC(=O)[C@H](CO)NC(=O)[C@H](CC(C)C)NC(=O)[C@H](CCC(=O)O)NC(=O)[C@H]([C@@H](C)O)NC(=O)[C@@H]2CCCN2C(=O)[C@H](C(C)C)NC(=O)[C@H](CO)NC(=O)[C@H](CO)NC(=O)[C@H](C)NC(=O)[C@H](CCCCN)NC(=O)[C@@H]2CCCN2C(=O)[C@H]([C@@H](C)CC)NC(=O)[C@H](CCCCN)NC(=O)[C@@H](N)CSSC[C@@H](C(=O)O)NC(=O)[C@H](C)NC(=O)[C@H](C(C)C)NC(=O)[C@H]([C@@H](C)CC)NC(=O)[C@H](Cc2c[nH]c3ccccc23)NC(=O)[C@H](CC(=O)O)NC(=O)CNC(=O)CNC(=O)[C@@H]2CCCN2C(=O)CNC(=O)[C@H](CC(C)C)NC(=O)[C@H](Cc2ccc(O)cc2)NC(=O)[C@H](CC(C)C)NC(=O)[C@H](CCSC)NC(=O)[C@H](CO)NC1=O", "note": "[M-C-BMP2] (H-CKIPKASSVPTELSAISMLYLGPGGDWIVAC-OH; disulfide 1-31)", "values": [{"measurement": "new mineralized nodules, extracellular matrix mineralization (FIG. 7B)", "setting": "BMSC; after 14 days, vs other groups", "result": "significantly higher than those of other groups"}, {"measurement": "area of mineralized nodules compared with BMP2 protein (FIG. 7D)", "setting": "BMSC; equivalent concentration", "result": "more obvious promotion effect on the formation of mineralized nodules than BMP2 protein"}, {"measurement": "efficacy in ALP staining, compared with BMP-2 protein", "setting": "[1]; vs BMP-2 protein", "result": "close to that of BMP-2 protein"}, {"measurement": "ALP induced (ALP staining), compared with linear peptide", "setting": "[1]; vs linear peptide from BMP-2", "result": "obvious advantages over the linear peptide"}, {"measurement": "amount of new bone relative to blank control group", "setting": "rat skull defect", "result": "nearly twice that of the blank group"}, {"measurement": "adhesion, extension, migration, anti-inflammatory of mesenchymal stem cells", "setting": "[2]; in vitro", "result": "efficiently promote"}, {"measurement": "ability to promote vascularization relative to positive control group", "setting": "[2]; vascular-like tissue formation, positive control BMP2", "result": 2.8, "unit": "times"}, {"measurement": "volume ratio of new bone (FIG. 8B)", "setting": "[3]; 50 ng/mL on collagen membrane, 4 weeks, Micro-CT, vs other groups", "result": "significantly higher than that of other groups"}, {"measurement": "area of new blood vessels (FIG. 8C)", "setting": "[3]; 50 ng/mL on collagen membrane, 4 weeks, Microfil perfusion and Micro-CT", "result": "higher than that of other groups"}, {"measurement": "healing of large-sized bone defects in the skull of rat", "setting": "[3]; peptide on support material, vs other groups", "result": "faster than other groups"}, {"measurement": "amount of ALP, quantitative detection (FIG. 6C)", "setting": "[4]; 50 ng/ml, 7 days, vs protein BMP2", "result": "significantly higher than that of protein BMP2"}, {"measurement": "osteogenic effect, ALP staining, compared with protein BMP2 (FIG. 6A)", "setting": "[4]; 50 ng/ml, culture for 7 days", "result": "better than that of protein BMP2"}, {"measurement": "osteogenic effect, ALP staining, compared with linear peptide (FIG. 6A)", "setting": "[4]; culture for 7 days", "result": "significantly better than that of the linear peptide"}, {"measurement": "number of tube forming junction points (nodes) relative to BMP2 protein group (FIG. 7C)", "setting": "HUVEC", "result": "four times that of the BMP2 protein group"}, {"measurement": "amount of mineralized nodules, Alizarin Red quantitative analysis, relative to equivalent protein BMP2 (FIG. 6D)", "setting": "[5]; 50 ng/ml, 28-day", "result": 2.6, "unit": "times"}, {"measurement": "area of mineralized nodules, Alizarin Red staining (FIG. 6B)", "setting": "[5]; 28 days in mineralization medium, equivalent concentration, vs protein BMP2", "result": "significantly higher than that of equivalent protein BMP2"}]}]}
